Laboratory results taken from PMC7871608.
These are yes or no findings as the source states them, for the method shown. In cells and extracts the contact can be indirect. Some results given as binding are weak or reduced against the parent protein; the word gives no strength.

Sequences of proteins named here, by UniProt entry; tags and fusion partners are left off. Residues count along the entry.
UniProt Q96AY3, residues 27-582: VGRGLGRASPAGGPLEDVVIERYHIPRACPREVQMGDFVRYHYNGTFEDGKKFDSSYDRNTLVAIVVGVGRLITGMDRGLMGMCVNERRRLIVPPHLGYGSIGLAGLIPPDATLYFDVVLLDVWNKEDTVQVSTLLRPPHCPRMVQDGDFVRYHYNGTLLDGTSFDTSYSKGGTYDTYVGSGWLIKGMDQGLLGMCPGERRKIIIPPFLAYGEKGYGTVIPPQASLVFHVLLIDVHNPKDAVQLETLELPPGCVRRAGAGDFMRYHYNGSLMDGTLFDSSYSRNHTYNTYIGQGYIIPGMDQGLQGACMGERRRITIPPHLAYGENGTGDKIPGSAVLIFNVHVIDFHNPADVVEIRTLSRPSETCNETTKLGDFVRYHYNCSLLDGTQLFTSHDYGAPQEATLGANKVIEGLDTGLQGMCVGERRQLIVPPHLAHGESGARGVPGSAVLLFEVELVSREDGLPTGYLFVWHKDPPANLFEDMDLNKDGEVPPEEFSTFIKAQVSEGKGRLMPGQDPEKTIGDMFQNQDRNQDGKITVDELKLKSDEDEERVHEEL

Target: FK506 binding protein 10 (human (endogenous in U118MG and LN229)) (UniProt Q96AY3)
Test: co-IP; endogenous proteins; non-denaturing lysate of U118MG and LN229 cells; anti-FKBP10 or anti-Hsp47 antibody on protein G agarose, 4 °C overnight, washed with PBST, western blot

binding: binds
B1: Heat shock protein 47 (protein, UniProt P50454 19-418)
chain: AEVKKPAAAAAPGTAEKLSPKAATLAERSAGLAFSLYQAMAKDQAVENILVSPVVVASSLGLVSLGGKATTASQAKAVLSAEQLRDEEVHAGLGELLRSLSNSTARNVTWKLGSRLYGPSSVSFADDFVRSSKQHYNCEHSKINFRDKRSALQSINEWAAQTTDGKLPEVTKDVERTDGALLVNAMFFKPHWDEKFHHKMVDNRGFMVTRSYTVGVMMMHRTGLYNYYDDEKEKLQIVEMPLAHKLSSLIILMPHHVEPLERLEKLLTKEQLKIWMGKMQKKAVAISLPKGVVEVTHDLQKHLAGLGLTEAIDKNKADLSRMSGKKDLYLASVFHATAFELDTDGNPFDQDIYGREELRSPKLFYADHPFIFLVRDTQSGSLLFIGRLVRPKGDKMRDEL
